Test system: PAO1 GFP biofilm
Assay: Confocal microscopy of antibiotic penetration into flow cell biofilm
Format: cell-based, P. aeruginosa
Conditions: for area under the curve of fluorescent antibiotic (intensity versus penetration): 15 μg/mL; for biofilm penetration: three-day flow cell biofilm

SMILES	area under the curve of fluorescent antibiotic (intensity versus penetration) (0.5 h after injection) [AU/μm^2]	area under the curve of fluorescent antibiotic (intensity versus penetration) (1 h after injection) [AU/μm^2]	area under the curve of fluorescent antibiotic (intensity versus penetration) (2 h after injection) [AU/μm^2]	biofilm penetration
O=C(O)c1cn(C2CC2)c2cc(N3CCNCC3)c(F)cc2c1=O [Cy5 ciprofloxacin]	746	805	1403	penetrated biofilm
NC[C@H]1O[C@H](O[C@H]2[C@H](O)[C@@H](O[C@H]3O[C@H](CO)[C@@H](O)[C@H](N)[C@H]3O)[C@H](N)C[C@@H]2N)[C@H](N)C[C@@H]1O [Cy5 TOB]	274	459	464	did not penetrate the biofilm

Source: patent US12569508B2, “Antimicrobial compositions and methods of use” (priority 2020, dated 2026)
